Test results from PMC10199020.
No constants are given. Whether binding was seen depends on the method and setting. Binding seen in cells or lysates may run through a third protein. Some results given as binding are weak or reduced against the parent protein; the word gives no strength.

By UniProt entry, the sequences of proteins in these tests, tags left out. Where a name states a change or a piece, a line headed by the entry shows the natural chain unless it says otherwise. Chains listed by the source or under a name are the forms on record and can include a tag or linker. Residues count along the entry.
NL-IL23R (Q5VWK5, residues 24-629): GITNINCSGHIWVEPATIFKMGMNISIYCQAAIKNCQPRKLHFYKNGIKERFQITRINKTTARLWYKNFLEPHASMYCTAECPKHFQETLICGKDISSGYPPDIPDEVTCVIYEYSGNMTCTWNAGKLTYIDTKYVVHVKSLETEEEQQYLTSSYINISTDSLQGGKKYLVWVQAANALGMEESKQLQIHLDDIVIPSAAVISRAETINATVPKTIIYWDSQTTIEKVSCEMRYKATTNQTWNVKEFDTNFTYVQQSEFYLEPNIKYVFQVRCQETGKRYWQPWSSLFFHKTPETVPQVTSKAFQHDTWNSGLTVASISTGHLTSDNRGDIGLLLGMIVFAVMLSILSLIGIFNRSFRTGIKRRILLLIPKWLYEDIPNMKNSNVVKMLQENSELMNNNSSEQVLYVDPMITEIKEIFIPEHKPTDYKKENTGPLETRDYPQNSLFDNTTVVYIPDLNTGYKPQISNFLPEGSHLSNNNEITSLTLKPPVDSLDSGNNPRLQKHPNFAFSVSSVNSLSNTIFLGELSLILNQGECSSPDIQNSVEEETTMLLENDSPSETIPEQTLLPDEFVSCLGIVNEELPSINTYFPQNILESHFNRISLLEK
NL-IL23R C115Y (Q5VWK5, form named): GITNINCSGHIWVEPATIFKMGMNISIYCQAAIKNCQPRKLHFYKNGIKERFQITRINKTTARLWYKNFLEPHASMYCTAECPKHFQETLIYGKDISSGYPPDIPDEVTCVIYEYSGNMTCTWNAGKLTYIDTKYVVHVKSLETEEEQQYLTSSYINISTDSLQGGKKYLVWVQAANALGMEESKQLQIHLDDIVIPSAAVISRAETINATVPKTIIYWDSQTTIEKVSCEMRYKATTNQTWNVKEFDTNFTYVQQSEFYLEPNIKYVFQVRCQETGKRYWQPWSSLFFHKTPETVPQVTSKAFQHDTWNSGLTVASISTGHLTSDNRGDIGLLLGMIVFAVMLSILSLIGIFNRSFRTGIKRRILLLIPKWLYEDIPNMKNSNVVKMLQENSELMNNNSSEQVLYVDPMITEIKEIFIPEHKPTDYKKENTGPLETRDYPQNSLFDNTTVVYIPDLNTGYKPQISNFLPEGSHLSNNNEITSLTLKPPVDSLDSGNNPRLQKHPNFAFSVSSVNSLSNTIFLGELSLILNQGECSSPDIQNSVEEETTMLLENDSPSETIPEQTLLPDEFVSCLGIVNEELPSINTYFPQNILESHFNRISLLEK
UniProt Q9NPF7: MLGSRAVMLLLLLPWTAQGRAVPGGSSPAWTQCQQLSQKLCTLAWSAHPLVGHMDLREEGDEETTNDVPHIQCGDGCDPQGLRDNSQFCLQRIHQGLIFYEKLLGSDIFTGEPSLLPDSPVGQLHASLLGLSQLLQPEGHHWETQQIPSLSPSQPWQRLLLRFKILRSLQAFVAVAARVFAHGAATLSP

Tests used:
[1] = molecular target: NL-IL23R (UniProt Q5VWK5); assay: FRET or BRET; NanoBRET saturation binding of IL23-TMR or P630-TMR on cells expressing wildtype or C115Y mutant receptor (Fig. 7); co-expression of IL12Rβ1 not stated; only the binder purified
[2] = molecular target: NL-IL23R C115Y (UniProt Q5VWK5); assay: as above
[3] = molecular target: NL-IL23R (UniProt Q5VWK5); assay: FRET or BRET; NanoBRET competition on living transfected HEK293T cells; 75 nM P630-TMR displaced by unlabelled antagonist (concentration series or a single concentration); 1 h at 37 °C in HBSS with 1 mg/mL BSA; only the binder purified

binding [1]	binding [2]	binding [3]	Substance
binds	no binding	–	IL23-TMR (TAMRA labelled version of IL-23) (from UniProt Q9NPF7 20-189; P29460 23-328) (ligand)
–	–	binds	IL-23 (from UniProt Q9NPF7 20-189; P29460 23-328) (ligand)
